Reference: publication PMC4148261
No constants are given. Whether binding was seen depends on the method and setting. Some binding calls cover weakened binding; strength is not graded here.

Chains of the proteins cited; added tags and fusions are not shown.
UniProt Q61696: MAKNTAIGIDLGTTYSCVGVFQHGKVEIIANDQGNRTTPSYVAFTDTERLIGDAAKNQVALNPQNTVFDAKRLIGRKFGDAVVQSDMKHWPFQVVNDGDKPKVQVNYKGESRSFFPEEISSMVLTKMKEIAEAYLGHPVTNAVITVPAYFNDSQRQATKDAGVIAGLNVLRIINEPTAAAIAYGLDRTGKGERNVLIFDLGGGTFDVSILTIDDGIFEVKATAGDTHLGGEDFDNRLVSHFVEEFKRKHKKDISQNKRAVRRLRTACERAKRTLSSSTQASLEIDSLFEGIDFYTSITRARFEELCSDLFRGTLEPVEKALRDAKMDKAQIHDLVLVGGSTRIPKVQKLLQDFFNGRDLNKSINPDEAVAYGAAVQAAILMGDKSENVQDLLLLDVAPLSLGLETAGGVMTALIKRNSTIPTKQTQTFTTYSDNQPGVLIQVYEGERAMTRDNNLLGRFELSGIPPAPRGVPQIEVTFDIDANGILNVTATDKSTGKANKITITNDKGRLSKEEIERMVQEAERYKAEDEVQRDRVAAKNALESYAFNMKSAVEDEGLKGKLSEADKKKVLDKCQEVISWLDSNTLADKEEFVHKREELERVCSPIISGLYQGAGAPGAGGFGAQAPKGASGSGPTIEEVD
UniProt P0DMV8: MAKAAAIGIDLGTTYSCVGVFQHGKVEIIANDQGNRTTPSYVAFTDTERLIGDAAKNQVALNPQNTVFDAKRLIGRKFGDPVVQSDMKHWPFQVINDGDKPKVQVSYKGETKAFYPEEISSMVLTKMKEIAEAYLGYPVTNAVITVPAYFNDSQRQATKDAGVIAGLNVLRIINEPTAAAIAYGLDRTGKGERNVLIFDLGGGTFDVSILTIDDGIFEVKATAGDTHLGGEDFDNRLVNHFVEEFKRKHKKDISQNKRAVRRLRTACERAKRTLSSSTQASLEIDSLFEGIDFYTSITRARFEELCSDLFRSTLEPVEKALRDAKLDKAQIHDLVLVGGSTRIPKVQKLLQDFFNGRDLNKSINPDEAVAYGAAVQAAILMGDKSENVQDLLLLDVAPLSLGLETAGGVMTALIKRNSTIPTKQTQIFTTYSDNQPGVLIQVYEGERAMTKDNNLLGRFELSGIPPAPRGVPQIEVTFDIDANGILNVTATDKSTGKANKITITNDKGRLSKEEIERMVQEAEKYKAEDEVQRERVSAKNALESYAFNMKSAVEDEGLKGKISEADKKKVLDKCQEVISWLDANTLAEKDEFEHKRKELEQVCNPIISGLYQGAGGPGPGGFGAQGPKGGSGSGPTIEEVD

Key:
[1] = biological target: membrane Hsp70 on mouse 4T1 wild type breast cancer cells (mouse (endogenous in 4T1)) (UniProt Q61696); assay: flow cytometry on cells; viable 4T1 wt cells stained with CF-labeled TPP, 4T1 Hsp70-/- knock-out cells as control; only the binder purified
[2] = biological target: membrane-bound form of Hsp70 (memHsp70) on human tumor cell lines (human (endogenous in human tumor cell lines)) (UniProt P0DMV8); assay: flow cytometry on cells; viable human tumor cell lines (2x10^5 cells) incubated with CF-labeled TPP 30 min at 4°C, two washes, propidium iodide negative cells analysed; only the binder purified

B1: carboxy-fluorescein (CF-) labeled 14-mer tumor penetrating peptide (TPP) (peptide)
peptide: TKDNNLLGRFELSG
modifications: carboxyfluorescein (CF) label, position not stated
binding [1]: binds | binding [2]: binds
